Experimental data: PubChem BioAssay AID1259254 (NCATS, 2017)
The deposit covers about 59,000 reagents; shown is a random part of them. About 1,550 of them (2.6%) count as active. 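G2 share is only a proxy for re-replication; each gene was hit by three separate siRNAs, and active genes were retested.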 Reagents against one gene are numbered here. Further read-outs or replicates are left out here. Not given: the amount of reagent.

- Assay: 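Finding genes that stop cells copying their DNA twice in one cycle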 (primary screen)
- System: human HCT116 colorectal cancer cells
- Knock-down reagent: single siRNA against human genes
- Timing: 3 days
- Read-out: 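Imaged Hoechst DNA stain sorts each cell into a cycle phase by DNA amount; per plate, G2 fraction set to 0% for non-targeting and 100% for GMNN siRNA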
- Reading the numbers: G2 robust z-score and G2 cells, % of GMNN control: higher = more G2 cells, more excess DNA replication
- Hit rule: 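Active siRNAs have a G2 robust z of 5 or more median absolute deviations over the median, which in these data means about 38% or higher of GMNN control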

gene,siRNA no.,G2 robust z-score,"G2 cells, % of GMNN control",Outcome
FLT4 (fms related receptor tyrosine kinase 4),1,-1.03,-4.26,inactive
FLT4 (fms related receptor tyrosine kinase 4),2,2.34,19.4,inactive
FLT4 (fms related receptor tyrosine kinase 4),3,0.00954,3.03,inactive
RPH3A (rabphilin 3A),1,-0.148,1.93,inactive
RPH3A (rabphilin 3A),2,1.48,13.4,inactive
RPH3A (rabphilin 3A),3,-0.123,2.1,inactive
NOP16 (NOP16 nucleolar protein),1,-0.0215,2.82,inactive
NOP16 (NOP16 nucleolar protein),2,0.693,7.84,inactive
NOP16 (NOP16 nucleolar protein),3,0.461,6.21,inactive
DHTKD1 (dehydrogenase E1 and transketolase domain containing 1),1,-0.741,-2.25,inactive
DHTKD1 (dehydrogenase E1 and transketolase domain containing 1),2,1.13,10.9,inactive
DHTKD1 (dehydrogenase E1 and transketolase domain containing 1),3,-0.829,-2.86,inactive
HOXC5 (homeobox C5),1,1.96,16.7,inactive
HOXC5 (homeobox C5),2,1.43,13,inactive
HOXC5 (homeobox C5),3,0.237,4.63,inactive
APOE (apolipoprotein E),1,-0.343,0.552,inactive
APOE (apolipoprotein E),2,-0.212,1.48,inactive
APOE (apolipoprotein E),3,-0.21,1.49,inactive
FBXL13 (F-box and leucine rich repeat protein 13),1,2.2,18.4,inactive
FBXL13 (F-box and leucine rich repeat protein 13),2,8.02,59.4,active
FBXL13 (F-box and leucine rich repeat protein 13),3,2.12,17.9,inactive
ZNF461 (zinc finger protein 461),1,0.822,8.75,inactive
ZNF461 (zinc finger protein 461),2,-0.0784,2.42,inactive
ZNF461 (zinc finger protein 461),3,-0.74,-2.24,inactive
DNAJC14 (DnaJ heat shock protein family (Hsp40) member C14),1,-0.0731,2.45,inactive
DNAJC14 (DnaJ heat shock protein family (Hsp40) member C14),2,-0.496,-0.523,inactive
DNAJC14 (DnaJ heat shock protein family (Hsp40) member C14),3,1.89,16.3,inactive
PIAS2 (protein inhibitor of activated STAT 2),1,-0.736,-2.21,inactive
PIAS2 (protein inhibitor of activated STAT 2),2,4.87,37.2,inactive
PIAS2 (protein inhibitor of activated STAT 2),3,1.87,16.1,inactive
